From patent US20140194498A1, “POLYISOPRENYLATED TETRACYCLIC XANTHONE WITH ANTICANCER ACTIVITY” (Hong Kong Baptist University, priority 2013, published 2014)

What was measured:
Experiment in all cases: cells
[1] = test system: HepG2 (human hepatocellular carcinoma); settings: HepG2, read-out: Cytotoxicity IC50, HepG 2
Procedure: To determine the cytotoxicity of garciesculentone B, its IC50 values on HepG2, SMMC-7721, MCF-7, and MDA-MB-231 cell lines are measured. […] In addition, further study is taken to test whether garciesculentone B can exert effects on cell motility. A wound healing assay using ECA109 cells is performed in this regard.
Cytotoxicity Assay. Cytotoxic activitiy of garciesculentone B were evaluated by MTT assay using SMMC-7721 (human hepatocellular carcinoma), HepG2 (human hepatocellular carcinoma), MCF-7 (human breast adenocarcinoma), and MDA-MB-231 (human breast adenocarcinoma). Paclitaxel was used as positive control. The detailed methodology for cytotoxicity assay has already been described in Xia, Z.-X.; Zhang, D.-D.; Liang, S.; Lao, Y.-Z.; Zhang, H.; Tan, H.-S.; Chen, S.-L.; Wang, X.-H.; Xu, H.-X., Bioassay-Guided Isolation of Prenylated Xanthones and Polycyclic Acylphloroglucinols from the Leaves of Garcinia nujiangensis. Journal of Natural Products 2012.

[2] = test system: MCF-7 (human breast adenocarcinoma); assay type: cell-based; settings: MCF7, read-out: Cytotoxicity IC50, MCF-7
Text: (§1) Cytotoxicity Assay. […] Paclitaxel was used as positive control. […] Journal of Natural Products 2012.

[3] = test system: MDA-MB-231 (human breast adenocarcinoma); assay type: cell-based; settings: MDA-MB-231, read-out: Cytotoxicity IC50, MDA-MB-231
Text: as §1

In the case of `CC(=O)O[C@H]1C(=O)[C@@]2(C)[C@H]([C@H](OC(=O)c3ccccc3)[C@]3(O)C[C@H](OC(=O)[C@H](O)[C@@H](NC(=O)c4ccccc4)c4ccccc4)C(C)=C1C3(C)C)[C@]1(OC(C)=O)CO[C@@H]1C[C@@H]2O` [Palcitaxel, Paclitaxel, reference compound], the IC50 [1] is reported as 4.6 nM, the IC50 [2] is reported as 1.5 nM and the IC50 [3] is reported as 8.2 nM.
